Reference: PubChem BioAssay AID493014 (National Center for Advancing Translational Sciences (NCATS), 2011)
Several values for one entry are separate records, joined by “and”; a condition that tells them apart may be missing. Equal values may be shown once. The list shows a part of the results. The main result of the screen is listed elsewhere. These columns were measured beside it and carry no call. Most of these compounds were active or inconclusive in the main read-out, so they are no random draw. Potencies come from curve fits of mixed quality, noted in brackets.

Assay: qHTS Assay to Find Inhibitors of Chronic Active B-Cell Receptor Signaling
Conditions: ABC-DLBCL IkBa-CBG/CBR reporter, luminescence ratio (green luciferase fused to IkBa over red control in TMD8 lymphoma cells), 4 h
How it was run: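 TMD8 ABC-DLBCL cells carrying doxycycline-inducible green luciferase fused to IkappaBalpha plus unfused red luciferase were exposed to compounds (up to 46 uM) for 4 hrs at 37C. Activity came from the overlap-corrected green/red luminescence ratio.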

[1] = measured here: CBR red luminescence, cell number
[2] = measured here: IkBa-CBG green luminescence

| SMILES | AC50 [1] | AC50 [2] |
| --- | --- | --- |
| O=C(COc1ccc(/C=N/NC(=O)c2ccccc2O)cc1)Nc1ccc([N+](=O)[O-])cc1 | 3.66 µM [falling, partial curve, poor fit] |  |
| COc1ccc(-c2csc(NC(=O)COC(=O)c3ccc(Br)o3)n2)cc1 | 0.13 µM [rising, full curve, poor fit] |  |
| O=C(NC(=S)N1CCN(c2ccc([N+](=O)[O-])cc2)CC1)c1ccccc1 | 0.708 µM [falling, full curve] |  |
| O=C(CCl)Nc1ccc2c(c1)OCO2 | 4.47 µM [falling, partial curve, poor fit] |  |
| Cc1nc2ccccn2c1C(=O)N/N=C/c1ccc([N+](=O)[O-])cc1 | 7.08 µM [falling, partial curve, poor fit] |  |
| N#C/C(=C/c1ccccc1)C(=O)OCC(=O)Nc1ccccc1[N+](=O)[O-] | 29.1 µM [rising, single point] |  |
| Cc1nnc(SCc2cccc(CSc3nnc(C)s3)c2)s1 | 2.59 µM [rising, single point] |  |
| O=C(CN(C(=O)CNC(=O)c1cccs1)c1ccc(F)cc1)NC1CCCC1 | 0.112 µM [rising, full curve, poor fit] |  |
| COc1ccc(-c2c(C)c3ccc(O)cc3oc2=O)cc1OC | 14.1 µM [rising, partial curve, poor fit] | 12.6 µM [falling, partial curve] |
| CCC(C(=O)NCc1ccco1)N(Cc1cccs1)C(=O)CNS(=O)(=O)c1ccccc1 (stereo unspecified) | 16.4 µM [falling, single point] |  |
| O=C(COC(=O)Cc1ccc(S(=O)(=O)N2CCOCC2)s1)Nc1ccc(OC(F)F)cc1 | 4.11 µM [rising, single point] |  |
| O=C(CC1N=C2c3ccccc3N=C(SCC(=O)Nc3ccc(F)cc3)N2C1=O)NCc1cccs1 (stereo unspecified) | 2.24 µM [falling, full curve] | 12.6 µM [rising, partial curve, poor fit] |
| O=S(=O)(Nc1ccc(S(=O)(=O)Nc2cccc3ccccc23)cc1)c1ccccc1 | 0.0206 µM [falling, full curve, poor fit] |  |
| Fc1ccc(/C=C/c2nnc(-c3cccs3)o2)cc1 | 7.31 µM [falling, partial curve] |  |
| CCc1ccc(NC(=O)C(=O)NCC2CCCO2)cc1 (stereo unspecified) | 35.5 µM [falling, single point] |  |
| COC(=O)CCC(=O)Nc1nccs1 | 1.41 µM [rising, partial curve, poor fit] |  |
| CCC1CCCCN1CCCNC(=O)CCCOc1cc(=O)n(C)c2ccccc12 (stereo unspecified) | 28.2 µM [rising, single point] |  |
| COc1ccccc1-n1cnc2c(c1=O)c1nc3ccccc3nc1n2-c1ccc(C)cc1 | 5.8 µM [falling, full curve, poor fit] |  |
| COc1cc(-c2nc(-c3cccc(C(F)(F)F)c3)no2)cc(OC)c1OC | 5.8 µM [rising, partial curve, poor fit] |  |
| CCCCn1c(SCC(=O)c2ccc3c(c2)OCCO3)nnc1-c1ccco1 | 2.59 µM [rising, full curve, poor fit] |  |
| CN(C)c1ccc(N=Nc2cccc3ccoc23)cc1 | 22.4 µM [falling, single point] |  |
| COc1ccccc1CNC(=O)[C@H](NC(=O)C1CCN(C(=O)[C@@H](N)CCSC)CC1)C(C)C | 2.82 µM [rising, partial curve] |  |

Reformatted tab-delimited: 2 of the compounds above
SMILES	AC50 [1]	AC50 [2]
CCC(C(=O)NCc1ccco1)N(Cc1cccs1)C(=O)CNS(=O)(=O)c1ccccc1 (stereo unspecified)	16.4 µM [falling, single point]	
O=C(COC(=O)Cc1ccc(S(=O)(=O)N2CCOCC2)s1)Nc1ccc(OC(F)F)cc1	4.11 µM [rising, single point]	

Continued:

| SMILES | AC50 [1] | AC50 [2] |
| --- | --- | --- |
| COc1ccc(NC(=O)CN2CCC(NC(=O)C3CCCCC3)CC2)c([N+](=O)[O-])c1 | 12.6 µM [rising, partial curve, poor fit] |  |
| O=C(Nc1ccc2oc(-c3cccnc3)nc2c1)c1cccnc1 | 1.41 µM [falling, partial curve, poor fit] |  |
| CCOC(=O)C1=C(COC(=O)/C=C/c2ccc(C)o2)NC(=O)NC1C (stereo unspecified) | 10.3 µM [rising, partial curve, poor fit] |  |
| COc1cccc(-c2cc(C(F)(F)F)nc(NCc3ccco3)n2)c1 |  | 20.6 µM [rising, partial curve, poor fit] |
| CC1CN(S(=O)(=O)c2ccc(C(=O)Nc3sccc3C(N)=O)cc2)CC(C)O1 (stereo unspecified) | 0.146 µM [rising, partial curve, poor fit] |  |
| COc1cc(OC)cc(-c2nc(N)n[nH]2)c1 | 20.6 µM [rising, single point] |  |
| N#CCOc1nc(N2CCOCC2)nc(N2CCOCC2)n1 | 4.61 µM [falling, partial curve, poor fit] |  |
| Fc1ccc(-n2nnc(-c3ccccc3Cl)n2)cc1 | 17.8 µM [rising, partial curve, poor fit] |  |
| CC(=O)Nc1cccc(NC(=O)c2oc3ccccc3c2C)c1 | 5.8 µM [falling, partial curve, poor fit] |  |
| O=C(CSc1nc2ccccc2c2nc3ccccc3n12)NCc1ccco1 | 3.26 µM [falling, full curve, poor fit] |  |
| COc1ccc2cc(CN(Cc3cccnc3)Cc3nnnn3Cc3ccccc3)c(=O)[nH]c2c1 | 3.55 µM [rising, single point] |  |
| Cc1nn2cc(-c3ccccc3)nc2s1 | 12.6 µM [falling, single point] |  |
| O=C(CCOc1ccccc1)Nc1ccccc1F | 12.6 µM [falling, partial curve] |  |
| c1nc(NCc2ccc3c(c2)OCO3)c2cc(-c3ccc4c(c3)OCCO4)ccc2n1 | 20.6 µM [falling, single point] and 29.1 µM [falling, single point] |  |
| CC1(C)Cc2c(sc(NC(=O)c3ccco3)c2C(=O)O)CO1 | 8.2 µM [falling, partial curve] |  |
| CC(C)OCCCNC(=O)c1ccc(NS(C)(=O)=O)cc1 | 3.26 µM [falling, single point] |  |
| C/C(CC(=O)NC12CC3CC(CC(C3)C1)C2)=N\NC(=O)Cc1cccs1 | 5.8 µM [rising, single point] |  |
| Cc1ccc(CS(=O)(=O)CCC(=O)NCCC2=CCCCC2)cc1 | 2.82 µM [rising, single point] |  |
| COc1cc(C(=O)c2c(C)c(CCC#N)n3ccccc23)cc(OC)c1OC |  | 3.98 µM [falling, partial curve, poor fit] |
| O=C(c1ccco1)N1CCN(c2ccc(Cl)cc2)CC1 | 29.1 µM [rising, single point] |  |
| Cc1cc(NC(=O)Cc2ccsc2)ccc1Br | 14.1 µM [rising, partial curve, poor fit] |  |
| Cc1cccc(C)c1NC(=S)NCCc1ccccn1 | 11.6 µM [rising, partial curve, poor fit] |  |

| SMILES | AC50 [1] | AC50 [2] |
| --- | --- | --- |
| Cc1ccc(/C=C2\SC(=S)N(CCCC(=O)NNC(=O)c3ccccc3O)C2=O)cc1 | 2.51 µM [falling, full curve, poor fit] |  |
| c1ccc(CCC2Cc3ccccc3N2)cc1 (stereo unspecified) | 20.6 µM [rising, single point] |  |
| COc1ccc(C(=O)Nc2nc(-c3ccc(S(=O)(=O)N4CCOCC4)cc3)cs2)cc1 | 20.6 µM [falling, single point] |  |
| CC(=O)c1ccc(NC(=O)c2ccccc2Sc2ncnc3sc(C)c(C)c23)cc1 | 29.1 µM [falling, single point] |  |
| COC(=O)CNC(=O)COc1ccccc1 | 2.06 µM [rising, partial curve, poor fit] |  |
| CCOC(=O)c1ccc(NC(=O)CSC2=NC(=O)C(CC)C(=O)N2)cc1 (stereo unspecified) | 29.1 µM [falling, single point] |  |
| c1ccc2c(c1)CC1(CCCC1)n1nnnc1-2 | 35.5 µM [rising, single point] |  |
| NS(=O)(=O)c1cccc(NC(=O)CSc2nc3ccccc3c(=O)n2Cc2ccco2)c1 | 23.1 µM [falling, single point] |  |
| Cc1cc(C)cc(NC(=O)CCC(=O)N2CCSc3ccccc32)c1 | 5.62 µM [falling, full curve] |  |
| O=C(CN1CCN(Cc2ccccc2Cl)C1=O)NC1CCCCCC1 | 11.6 µM [rising, single point] |  |
| Cc1nn(-c2ccccc2)c(C)c1C(=O)OCC(=O)NC(=O)NC1CCCCC1 | 11.2 µM [falling, partial curve] |  |
| N=c1c2c(n(Cc3cccc(Cl)c3)c3c1CCC3)CCCC2 | 10.3 µM [falling, partial curve, poor fit] |  |
| O=C(NC(=S)Nc1ccccc1Br)C1CCC1 | 1.12 µM [falling, full curve] |  |
| Cn1c(=O)n(C)c2cc(NC(=O)CCc3ccccc3)c(Br)cc21 | 11.2 µM [rising, partial curve, poor fit] |  |
| CCOC(=O)c1c(N)sn(-c2ccccc2)c1=S | 4.61 µM [rising, partial curve, poor fit] |  |
| CCCC(C)NC(=O)CN(Cc1ccco1)S(=O)(=O)c1ccccc1 (stereo unspecified) | 29.1 µM [rising, single point] |  |
| COc1ccc(C(=O)NC(c2ccc(Cl)cc2)c2cc(Cl)c3cccnc3c2O)cc1 (stereo unspecified) | 14.1 µM [rising, partial curve, poor fit] |  |
| Cc1ccc(-n2nc(C)c(Sc3ccccc3[N+](=O)[O-])c2N)cc1 |  | 32.6 µM [falling, partial curve, poor fit] |
| CCOc1ncccc1C(=O)NCc1ccc(OC)cc1 | 23.1 µM [falling, single point] |  |
| O=C(Nc1ccc(-c2nc3cc(NC(=O)c4cccs4)ccc3o2)cc1)c1cccs1 | 7.94 µM [falling, partial curve, poor fit] |  |
